Experimental data published in paper doi:10.1101/2023.06.08.544225.
Results are given in words; binding and its absence hold for the method and conditions named. Binding seen in cells or lysates may run through a third protein. Here binding means that the protein was enriched with, or labelled near, the bait; the list need not be complete. Each block holds one binder with its values, some of them ahead of it.

The chains behind the UniProt entries cited, without tags or fusion partners.
UniProt O75643: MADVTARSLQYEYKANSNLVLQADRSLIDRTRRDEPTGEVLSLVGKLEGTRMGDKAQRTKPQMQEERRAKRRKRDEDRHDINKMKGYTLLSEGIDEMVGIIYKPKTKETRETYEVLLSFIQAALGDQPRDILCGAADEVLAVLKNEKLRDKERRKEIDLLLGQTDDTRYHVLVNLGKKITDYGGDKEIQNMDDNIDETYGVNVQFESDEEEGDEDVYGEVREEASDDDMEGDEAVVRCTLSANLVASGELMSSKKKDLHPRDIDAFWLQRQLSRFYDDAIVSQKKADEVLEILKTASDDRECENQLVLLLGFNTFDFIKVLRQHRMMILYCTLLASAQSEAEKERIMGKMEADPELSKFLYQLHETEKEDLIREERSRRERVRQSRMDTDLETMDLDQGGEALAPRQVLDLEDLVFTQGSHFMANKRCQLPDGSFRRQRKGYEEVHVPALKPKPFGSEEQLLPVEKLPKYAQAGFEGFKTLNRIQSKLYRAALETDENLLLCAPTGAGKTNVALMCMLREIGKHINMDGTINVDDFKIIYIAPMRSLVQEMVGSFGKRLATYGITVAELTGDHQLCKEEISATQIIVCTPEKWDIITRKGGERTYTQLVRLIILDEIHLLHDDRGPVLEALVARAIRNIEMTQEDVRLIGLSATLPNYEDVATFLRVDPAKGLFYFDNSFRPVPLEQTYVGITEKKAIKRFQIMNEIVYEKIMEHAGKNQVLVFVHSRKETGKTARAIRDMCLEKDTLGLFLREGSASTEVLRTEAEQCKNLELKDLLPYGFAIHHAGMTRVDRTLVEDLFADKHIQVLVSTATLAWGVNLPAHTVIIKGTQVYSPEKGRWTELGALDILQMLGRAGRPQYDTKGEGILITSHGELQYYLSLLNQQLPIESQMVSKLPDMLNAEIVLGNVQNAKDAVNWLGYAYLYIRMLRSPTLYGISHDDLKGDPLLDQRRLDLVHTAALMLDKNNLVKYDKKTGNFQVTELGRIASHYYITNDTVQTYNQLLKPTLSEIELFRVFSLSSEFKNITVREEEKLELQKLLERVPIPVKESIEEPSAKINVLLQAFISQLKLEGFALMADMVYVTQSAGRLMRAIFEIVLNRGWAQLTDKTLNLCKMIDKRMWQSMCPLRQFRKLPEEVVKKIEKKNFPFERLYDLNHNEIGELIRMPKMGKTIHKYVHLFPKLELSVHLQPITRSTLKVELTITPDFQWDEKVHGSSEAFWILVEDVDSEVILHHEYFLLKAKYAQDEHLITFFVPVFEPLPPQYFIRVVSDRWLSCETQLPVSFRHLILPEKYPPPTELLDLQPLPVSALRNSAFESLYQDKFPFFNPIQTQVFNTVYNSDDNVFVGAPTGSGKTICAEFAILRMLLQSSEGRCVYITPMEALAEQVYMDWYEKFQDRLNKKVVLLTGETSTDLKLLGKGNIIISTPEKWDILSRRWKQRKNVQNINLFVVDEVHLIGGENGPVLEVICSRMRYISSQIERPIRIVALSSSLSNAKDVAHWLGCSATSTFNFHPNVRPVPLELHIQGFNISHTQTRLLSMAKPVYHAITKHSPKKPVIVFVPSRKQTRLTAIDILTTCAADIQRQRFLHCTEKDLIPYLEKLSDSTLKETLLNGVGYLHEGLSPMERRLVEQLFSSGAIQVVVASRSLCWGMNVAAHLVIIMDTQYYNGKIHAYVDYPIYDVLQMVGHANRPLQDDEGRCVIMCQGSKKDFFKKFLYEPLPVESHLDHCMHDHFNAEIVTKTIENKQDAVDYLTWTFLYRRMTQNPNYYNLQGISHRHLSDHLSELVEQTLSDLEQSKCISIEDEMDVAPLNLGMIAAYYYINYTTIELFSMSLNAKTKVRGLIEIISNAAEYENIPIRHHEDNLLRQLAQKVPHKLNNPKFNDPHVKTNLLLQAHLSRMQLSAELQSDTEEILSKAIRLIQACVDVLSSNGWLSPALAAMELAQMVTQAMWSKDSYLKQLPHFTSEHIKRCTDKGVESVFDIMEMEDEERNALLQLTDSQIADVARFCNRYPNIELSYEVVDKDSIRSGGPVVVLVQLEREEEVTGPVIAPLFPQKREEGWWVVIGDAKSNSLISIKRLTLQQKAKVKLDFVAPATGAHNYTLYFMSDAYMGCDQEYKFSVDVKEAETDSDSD

Columns and labels:
[1] = target: T1, HNRNPL (human (endogenous in HEK293XT)) (UniProt P14866); assay: affinity purification with mass spectrometry; IP of the endogenous bait (10 µg antibody on Dynabeads Protein G, overnight 4°C) from HEK293XT lysate (150 mM NaCl, 50 mM Tris pH 7.5, 1% IGPAL-CA-630, 5% glycerol), triplicate, TMT11 LC-MS/MS; hit found in both arms, with and without RNase ('direct'), or arm not told
T1 sequence: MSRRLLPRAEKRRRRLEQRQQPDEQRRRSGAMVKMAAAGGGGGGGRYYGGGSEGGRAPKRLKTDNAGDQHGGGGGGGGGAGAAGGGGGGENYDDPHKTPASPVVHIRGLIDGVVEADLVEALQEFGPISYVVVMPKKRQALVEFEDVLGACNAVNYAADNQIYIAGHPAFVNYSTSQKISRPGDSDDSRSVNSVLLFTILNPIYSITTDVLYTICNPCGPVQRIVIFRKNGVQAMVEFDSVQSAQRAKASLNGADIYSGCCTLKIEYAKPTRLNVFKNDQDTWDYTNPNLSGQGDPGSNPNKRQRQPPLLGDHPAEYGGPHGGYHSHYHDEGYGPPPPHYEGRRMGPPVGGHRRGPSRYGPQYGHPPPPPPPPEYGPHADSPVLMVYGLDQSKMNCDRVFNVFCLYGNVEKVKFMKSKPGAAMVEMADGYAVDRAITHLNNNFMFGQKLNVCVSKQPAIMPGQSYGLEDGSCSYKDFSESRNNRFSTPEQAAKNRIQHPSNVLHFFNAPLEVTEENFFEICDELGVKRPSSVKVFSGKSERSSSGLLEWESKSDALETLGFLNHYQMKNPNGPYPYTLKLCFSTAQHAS

[2] = target: SNRNP200 (human (endogenous in HEK293XT)) (UniProt O75643); assay: as above

B3: CD2BP2 (protein, UniProt O95400 1-341)
chain: MPKRKVTFQGVGDEEDEDEIIVPKKKLVDPVAGSGGPGSRFKGKHSLDSDEEEDDDDGGSSKYDILASEDVEGQEAATLPSEGGVRITPFNLQEEMEEGHFDADGNYFLNRDAQIRDSWLDNIDWVKIRERPPGQRQASDSEEEDSLGQTSMSAQALLEGLLELLLPRETVAGALRRLGARGGGKGRKGPGQPSSPQRLDRLSGLADQMVARGNLGVYQETRERLAMRLKGLGCQTLGPHNPTPPPSLDMFAEELAEEELETPTPTQRGEAESRGDGLVDVMWEYKWENTGDAELYGPFTSAQMQTWVSEGYFPDGVYCRKLDPPGGQFYNSKRIDFDLYT
binding [2]: binds

B5: CSTF2 (protein, UniProt P33240 1-577)
chain: MAGLTVRDPAVDRSLRSVFVGNIPYEATEEQLKDIFSEVGPVVSFRLVYDRETGKPKGYGFCEYQDQETALSAMRNLNGREFSGRALRVDNAASEKNKEELKSLGTGAPVIESPYGETISPEDAPESISKAVASLPPEQMFELMKQMKLCVQNSPQEARNMLLQNPQLAYALLQAQVVMRIVDPEIALKILHRQTNIPTLIAGNPQPVHGAGPGSGSNVSMNQQNPQAPQAQSLGGMHVNGAPPLMQASMQGGVPAPGQMPAAVTGPGPGSLAPGGGMQAQVGMPGSGPVSMERGQVPMQDPRAAMQRGSLPANVPTPRGLLGDAPNDPRGGTLLSVTGEVEPRGYLGPPHQGPPMHHVPGHESRGPPPHELRGGPLPEPRPLMAEPRGPMLDQRGPPLDGRGGRDPRGIDARGMEARAMEARGLDARGLEARAMEARAMEARAMEARAMEARAMEVRGMEARGMDTRGPVPGPRGPIPSGMQGPSPINMGAVVPQGSRQVPVMQGTGMQGASIQGGSQPGGFSPGQNQVTPQDHEKAALIMQVLQLTADQIAMLPPEQRQSILILKEQIQKSTGAP
binding [1]: binds

Next, values leading:

binding [1]: binds
B1: MATR3 (protein, UniProt P43243 1-847)
chain: MSKSFQQSSLSRDSQGHGRDLSAAGIGLLAAATQSLSMPASLGRMNQGTARLASLMNLGMSSSLNQQGAHSALSSASTSSHNLQSIFNIGSRGPLPLSSQHRGDADQASNILASFGLSARDLDELSRYPEDKITPENLPQILLQLKRRRTEEGPTLSYGRDGRSATREPPYRVPRDDWEEKRHFRRDSFDDRGPSLNPVLDYDHGSRSQESGYYDRMDYEDDRLRDGERCRDDSFFGETSHNYHKFDSEYERMGRGPGPLQERSLFEKKRGAPPSSNIEDFHGLLPKGYPHLCSICDLPVHSNKEWSQHINGASHSRRCQLLLEIYPEWNPDNDTGHTMGDPFMLQQSTNPAPGILGPPPPSFHLGGPAVGPRGNLGAGNGNLQGPRHMQKGRVETSRVVHIMDFQRGKNLRYQLLQLVEPFGVISNHLILNKINEAFIEMATTEDAQAAVDYYTTTPALVFGKPVRVHLSQKYKRIKKPEGKPDQKFDQKQELGRVIHLSNLPHSGYSDSAVLKLAEPYGKIKNYILMRMKSQAFIEMETREDAMAMVDHCLKKALWFQGRCVKVDLSEKYKKLVLRIPNRGIDLLKKDKSRKRSYSPDGKESPSDKKSKTDGSQKTESSTEGKEQEEKSGEDGEKDTKDDQTEQEPNMLLESEDELLVDEEEAAALLESGSSVGDETDLANLGDVASDGKKEPSDKAVKKDGSASAAAKKKLKKVDKIEELDQENEAALENGIKNEENTEPGAESSENADDPNKDTSENADGQSDENKDDYTIPDEYRIGPYQPNVPVGIDYVIPKTGFYCKLCSLFYTNEEVAKNTHCSSLPHYQKLKKFLNKLAEERRQKKET

binding [1]: binds
B2: ILF3 (protein, UniProt Q12906 1-894)
chain: MRPMRIFVNDDRHVMAKHSSVYPTQEELEAVQNMVSHTERALKAVSDWIDEQEKGSSEQAESDNMDVPPEDDSKEGAGEQKTEHMTRTLRGVMRVGLVAKGLLLKGDLDLELVLLCKEKPTTALLDKVADNLAIQLAAVTEDKYEILQSVDDAAIVIKNTKEPPLSLTIHLTSPVVREEMEKVLAGETLSVNDPPDVLDRQKCLAALASLRHAKWFQARANGLKSCVIVIRVLRDLCTRVPTWGPLRGWPLELLCEKSIGTANRPMGAGEALRRVLECLASGIVMPDGSGIYDPCEKEATDAIGHLDRQQREDITQSAQHALRLAAFGQLHKVLGMDPLPSKMPKKPKNENPVDYTVQIPPSTTYAITPMKRPMEEDGEEKSPSKKKKKIQKKEEKAEPPQAMNALMRLNQLKPGLQYKLVSQTGPVHAPIFTMSVEVDGNSFEASGPSKKTAKLHVAVKVLQDMGLPTGAEGRDSSKGEDSAEETEAKPAVVAPAPVVEAVSTPSAAFPSDATAEQGPILTKHGKNPVMELNEKRRGLKYELISETGGSHDKRFVMEVEVDGQKFQGAGSNKKVAKAYAALAALEKLFPDTPLALDANKKKRAPVPVRGGPKFAAKPHNPGFGMGGPMHNEVPPPPNLRGRGRGGSIRGRGRGRGFGGANHGGYMNAGAGYGSYGYGGNSATAGYSQFYSNGGHSGNASGGGGGGGGGSSGYGSYYQGDNYNSPVPPKHAGKKQPHGGQQKPSYGSGYQSHQGQQQSYNQSPYSNYGPPQGKQKGYNHGQGSYSYSNSYNSPGGGGGSDYNYESKFNYSGSGGRSGGNSYGSGGASYNPGSHGGYGGGSGGGSSYQGKQGGYSQSNYNSPGSGQNYSGPPSSYQSSQGGYGRNADHSMNYQYR

binding [2]: binds
B4: BUD13 (protein, UniProt Q9BRD0 1-619)
chain: MAAAPPLSKAEYLKRYLSGADAGVDRGSESGRKRRKKRPKPGGAGGKGMRIVDDDVSWTAISTTKLEKEEEEDDGDLPVVAEFVDERPEEVKQMEAFRSSAKWKLLGGHNEDLPSNRHFRHDTPDSSPRRVRHGTPDPSPRKDRHDTPDPSPRRARHDTPDPSPLRGARHDSDTSPPRRIRHDSSDTSPPRRARHDSPDPSPPRRPQHNSSGASPRRVRHDSPDPSPPRRARHGSSDISSPRRVHNNSPDTSRRTLGSSDTQQLRRARHDSPDLAPNVTYSLPRTKSGKAPERASSKTSPHWKESGASHLSFPKNSKYEYDPDISPPRKKQAKSHFGDKKQLDSKGDCQKATDSDLSSPRHKQSPGHQDSDSDLSPPRNRPRHRSSDSDLSPPRRRQRTKSSDSDLSPPRRSQPPGKKAAHMYSGAKTGLVLTDIQREQQELKEQDQETMAFEAEFQYAETVFRDKSGRKRNLKLERLEQRRKAEKDSERDELYAQWGKGLAQSRQQQQNVEDAMKEMQKPLARYIDDEDLDRMLREQEREGDPMANFIKKNKAKENKNKKVRPRYSGPAPPPNRFNIWPGYRWDGVDRSNGFEQKRFARLASKKAVEELAYKWSVEDM
